From publication PMC7819943, “Rice protein-binding microarrays: a tool to detect cis-acting elements near promoter regions in rice”
This is one part of the list.

By UniProt entry, the sequences of proteins in these tests, tags left out.
UniProt Q0JBA9, entry or part of it: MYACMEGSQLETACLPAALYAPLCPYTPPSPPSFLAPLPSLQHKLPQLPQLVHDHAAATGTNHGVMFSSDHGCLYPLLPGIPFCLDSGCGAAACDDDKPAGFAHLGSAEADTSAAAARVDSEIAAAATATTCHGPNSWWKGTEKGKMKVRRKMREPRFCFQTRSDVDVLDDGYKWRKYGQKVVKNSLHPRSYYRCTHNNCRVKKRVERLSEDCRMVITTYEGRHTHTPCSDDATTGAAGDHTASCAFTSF

Biological target: OsWRKY34 (Oryza sativa, UniProt Q0JBA9 1-250)
Assay: protein-binding microarray (RPBM); PBS, 2% BSA, 51.3 ng/ul salmon testes DNA, 50 uM zinc acetate, 200 nM TF, 25 C, 1 h; high values mean tight binding
Settings: protein: recombinant; tags: N-terminal polyhistidine and DsRed monomer fusion (pET32a); label: CyDye5-dUTP incorporated in the synthesized complementary strand; 3' TTTTT single-stranded linker to array surface; dsDNA, one strand shown
Outline: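 Transcription factors were made in E. coli BL21-CodonPlus as N-terminal fusions to a polyhistidine tag and DsRed, then purified on Ni–NTA. After primer extension with Cy5-dUTP and blocking with 2% BSA, a custom Agilent array was exposed for 1 h at 25 °C to 200 nM protein in PBS, 2% BSA, salmon testes DNA and 50 µM zinc acetate. Washed arrays were scanned on an Axon 4000B, and the binding signal is per-feature fluorescence intensity in arbitrary units.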

Question: For “CGCACCATATCCAATTGTCATTCGCTGTTTCAACCGTCCTCGGAGTCACCTAGTGCAG”, which binding signal is on record?
Answer: 10700 fluorescence intensity (a.u.)

Question: For “TCTACGTGTACCGTGTTTATCCCATCTGTTTTCCCCTTTACGGAGTCACCTAGTGCAG”, which binding signal is on record?
Answer: 16000 fluorescence intensity (a.u.)

Question: “TATCATTTATTTTATTATGACTTGATTTGTCATCAAATGTCGGAGTCACCTAGTGCAG” was tested. Which binding signal did it give?
Answer: 8390 fluorescence intensity (a.u.)

Question: Which binding signal does the source give for “CCTTACTTTATCATTGCGGGTGCTCTTAGGCTAACATAAACGGAGTCACCTAGTGCAG” here?
Answer: 8080 fluorescence intensity (a.u.)

Question: “ACATCTAGCTTCATGCCTGCTTTCCTTACATAAATCCAAACGGAGTCACCTAGTGCAG” was tested. Which binding signal did it give?
Answer: 8490 fluorescence intensity (a.u.)

Question: Which binding signal does the source give for “TTGATTCCGTGTCGCATATCTGTCTTAATTTCGTGGAAGGCGGAGTCACCTAGTGCAG” here?
Answer: 9570 fluorescence intensity (a.u.)

Question: Which binding signal does the source give for “CATGGGTTTTGTTCAGGTTGTTGAGTTCTGGATCTGGGAACGGAGTCACCTAGTGCAG” here?
Answer: 8890 fluorescence intensity (a.u.)

Question: “TTGATCTCCACCGCCCGTTTCTTCCATCTGAGTCGTCCACCGGAGTCACCTAGTGCAG” was tested. Which binding signal did it give?
Answer: 9200 fluorescence intensity (a.u.)

Question: With “TCGAAATGTTTGACACCGTTGACTTTTTAGCATATGTTTGCGGAGTCACCTAGTGCAG” as the sequence, how does the binding signal read?
Answer: 33700 fluorescence intensity (a.u.)

Question: For “TTATACAGTCCGCTAATATCGTCTTATTGTACTCACTCAACGGAGTCACCTAGTGCAG”, which binding signal is on record?
Answer: 11200 fluorescence intensity (a.u.)

Question: For “GAGGATTCAGACATTTTCATCGTTGCTCTTATTCCTTTCACGGAGTCACCTAGTGCAG”, which binding signal is on record?
Answer: 9870 fluorescence intensity (a.u.)

Question: “TCACCCATCTCGTCATCTCCACCAACGCCGGCGCCCACACCGGAGTCACCTAGTGCAG” was tested. Which binding signal did it give?
Answer: 8870 fluorescence intensity (a.u.)

Question: For “CCATCTACCTCAATGTTTTAGGATTCACCACTCATCACCACGGAGTCACCTAGTGCAG”, which binding signal is on record?
Answer: 8100 fluorescence intensity (a.u.)

Question: With “AATTTCAGCTGTACCTTTTCACTCTTCTTTTCCATCTTAACGGAGTCACCTAGTGCAG” as the sequence, how does the binding signal read?
Answer: 9460 fluorescence intensity (a.u.)

Question: Which binding signal does the source give for “GCGGGCCCAGCTGTCATCCTCACCCCTGCCAGCCAAACTACGGAGTCACCTAGTGCAG” here?
Answer: 8090 fluorescence intensity (a.u.)

Question: How did the binding signal turn out when “GCTCCTTGTTTAATTTAGACGTTGTCTTTTACTGTTTTGGCGGAGTCACCTAGTGCAG” was run?
Answer: 9430 fluorescence intensity (a.u.)

Question: How did the binding signal turn out when “AGACTTCTCATGGTACGAATGCTTTCTTTTTATTCTTCAACGGAGTCACCTAGTGCAG” was run?
Answer: 10100 fluorescence intensity (a.u.)

Question: For “TCAATTTGCGCGTCGCCGTCGTCTCCGCTTCTCCTAATTTCGGAGTCACCTAGTGCAG”, which binding signal is on record?
Answer: 12200 fluorescence intensity (a.u.)

Question: How did the binding signal turn out when “GAACCATGGCGTTGCGGTTGGATATCCTAACTTATATGTACGGAGTCACCTAGTGCAG” was run?
Answer: 10600 fluorescence intensity (a.u.)

Question: How did the binding signal turn out when “AAGTCTTTCATTTTCCTGCCATGCTCATGAACACAAATTACGGAGTCACCTAGTGCAG” was run?
Answer: 9090 fluorescence intensity (a.u.)

Question: For “GCACCACGCCGCGCGCCGTCAAACTCCGCCGTTCCGCCACCGGAGTCACCTAGTGCAG”, which binding signal is on record?
Answer: 8390 fluorescence intensity (a.u.)

Question: With “TCTCTAGAAGCTTCACTACTTTTTTCATTTCTCTAACTCTCGGAGTCACCTAGTGCAG” as the sequence, how does the binding signal read?
Answer: 8100 fluorescence intensity (a.u.)

Question: “CACCTCCTCCCTCGCCGCCGCCGCCGCCGCTGACTCCCACCGGAGTCACCTAGTGCAG” was tested. Which binding signal did it give?
Answer: 9720 fluorescence intensity (a.u.)

Question: “TTATCAGTCACTGGCAGATACATTTCGTTGATCCCACTCACGGAGTCACCTAGTGCAG” was tested. Which binding signal did it give?
Answer: 8810 fluorescence intensity (a.u.)

Question: With “AGGTGAGGGGAGCGACGAGGGGTTCTTTGCGGCATACGACCGGAGTCACCTAGTGCAG” as the sequence, how does the binding signal read?
Answer: 10500 fluorescence intensity (a.u.)

Question: Which binding signal does the source give for “CCCTCTTTCCCATCTGTGTCACCTTCCACCGCTGTTCAAACGGAGTCACCTAGTGCAG” here?
Answer: 8420 fluorescence intensity (a.u.)

Question: For “CATGTTGCGCGTATTTGATCTGTTCATGCTTTACTGCTTACGGAGTCACCTAGTGCAG”, which binding signal is on record?
Answer: 10500 fluorescence intensity (a.u.)

Question: How did the binding signal turn out when “CATGAAGCCCACGAACGTATTCATTGTCATCGCCTCATTGCGGAGTCACCTAGTGCAG” was run?
Answer: 8660 fluorescence intensity (a.u.)

Question: Which binding signal does the source give for “CCTATTTTTAGTCGCTTCCTCTCTCTCTCTCTCTCTCTCTCGGAGTCACCTAGTGCAG” here?
Answer: 9540 fluorescence intensity (a.u.)

Question: Which binding signal does the source give for “CCGGTCCTTCACCCACTTCAGCTTCACGTTCACCAGCGTCCGGAGTCACCTAGTGCAG” here?
Answer: 10200 fluorescence intensity (a.u.)

Question: How did the binding signal turn out when “ATTTGCATGACATATATCATTACTACATTATTTTATATAGCGGAGTCACCTAGTGCAG” was run?
Answer: 8930 fluorescence intensity (a.u.)

Question: Which binding signal does the source give for “TTCCGCACCATCCATACAGACTGGCGTGTAGGCCCCACCTCGGAGTCACCTAGTGCAG” here?
Answer: 8510 fluorescence intensity (a.u.)

Question: With “AGTAATCGGCGCCGTCTTTTCTTCCTTCACGCCAGCGTCGCGGAGTCACCTAGTGCAG” as the sequence, how does the binding signal read?
Answer: 8820 fluorescence intensity (a.u.)

Question: With “TCTCCCACAACACCGTCGACGCCTACCGCCACACCGGAGCCGGAGTCACCTAGTGCAG” as the sequence, how does the binding signal read?
Answer: 10300 fluorescence intensity (a.u.)

Question: Which binding signal does the source give for “TTGCGCTTCTTCATTTTCTTAGTTGGTTATAATGTATGTACGGAGTCACCTAGTGCAG” here?
Answer: 8300 fluorescence intensity (a.u.)

Question: How did the binding signal turn out when “GATTCGATCAATTTTTGTGCTGCATGATGTACATGTGTTACGGAGTCACCTAGTGCAG” was run?
Answer: 8140 fluorescence intensity (a.u.)

Question: For “TCAGATCATTTTACCACCGTCCGTTCATAACACCCATGGCCGGAGTCACCTAGTGCAG”, which binding signal is on record?
Answer: 9080 fluorescence intensity (a.u.)

Question: How did the binding signal turn out when “AATTCAAATTCATACTGTTCAAACAAAGTCATATAGAAAACGGAGTCACCTAGTGCAG” was run?
Answer: 28600 fluorescence intensity (a.u.)

Question: For “CGCCAGCCACCTCCGGCGCCGTTCGCCAGCCACCACGCGCCGGAGTCACCTAGTGCAG”, which binding signal is on record?
Answer: 9300 fluorescence intensity (a.u.)

Question: How did the binding signal turn out when “AATTAATTCCTTTATCCATTTCTCATCTGTACACTCCAACCGGAGTCACCTAGTGCAG” was run?
Answer: 11300 fluorescence intensity (a.u.)

Question: How did the binding signal turn out when “GTAAATCCTTCTCAACTTCTCCTTAATTTTCTCATCTGTTCGGAGTCACCTAGTGCAG” was run?
Answer: 11400 fluorescence intensity (a.u.)

Question: With “GCATACATATGTTGCAGGGGTGGGACAGGTGCATGCATGACGGAGTCACCTAGTGCAG” as the sequence, how does the binding signal read?
Answer: 8620 fluorescence intensity (a.u.)
